PubChem BioAssay AID493246 – Drosophila RNAi Screening Center, 2011
Aim: 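Genome-wide search for dsRNAs that reduce cell number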 (primary screen). System: Drosophila Kc and S2R+ cells. Reagent: long dsRNA against Drosophila genes. Measurement: 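Raw, unnormalised count of remaining cells in each well; per-plate z-scores of cell number underlie the calls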. Scale: Kc cell number and S2R+ cell number: higher = more cells remaining. Hit rule: 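Active when the per-plate z-score of cell number is 3 or more in the direction of fewer cells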.
In all, the deposit lists about 21,000 reagents; shown is an unselected part of those that have a named target and a result. In the full data, 429 (2%) got an active call. 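Values are raw and not normalised between plates; calls rest on per-plate z-scores that were not deposited.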 Entries without a mark were called inactive. Names joined by + are all predicted targets of the reagent. The record does not give: the amount of reagent, the time to read-out.

target gene | DRSC id | Kc cell number, rep 1 | Kc cell number, rep 2 | S2R+ cell number, rep 1 | S2R+ cell number, rep 2
CG18367 | DRSC06545 | 1.59e6 | 1.68e6 | 1.30e6 | 1.36e6
Nep1 | DRSC18388 | 5.62e5 | – | 8.90e5 | –
Nep1 | DRSC18389 | 1.31e6 | 1.45e6 | 7.57e5 | 8.94e5
CG9737 | DRSC16550 | 1.49e6 | 1.54e6 | 9.87e5 | 1.13e6
Hey | DRSC07440 | 1.12e6 (active) | 9.97e5 | 5.30e5 | 6.29e5
CG13692 | DRSC00361 | 1.52e6 | 1.58e6 | 1.01e6 | 1.15e6
CG42700 | DRSC06292 | 5.77e5 (active) | 1.02e6 | 4.18e5 | 5.68e5
CG42700 | DRSC06293 | 1.61e6 | 1.68e6 | 1.40e6 | 1.47e6
Oseg1 | DRSC10776 | 1.37e6 | 1.45e6 | 1.15e6 | 1.12e6
mora | DRSC16594 | 1.34e6 | 1.40e6 | 9.82e5 | 1.08e6
tup | DRSC03627 | 1.41e6 | 1.45e6 | 1.36e6 | 1.32e6
Gr58b | DRSC04140 | 1.48e6 | 1.57e6 | 1.30e6 | 4.49e5
CG3436 | DRSC00605 | 6.81e5 | 9.68e5 | 2.34e5 | 3.12e5
Zn72D | DRSC11318 | 1.42e6 | 1.45e6 | 1.15e6 | 1.24e6
Fit1 | DRSC08450 | 1.36e6 | 1.51e6 | 1.26e6 | 1.14e6
Vm34Ca | DRSC03475 | 1.54e6 | 1.57e6 | 1.05e6 | 1.14e6
spn-A | DRSC16812 | 1.48e6 | 1.53e6 | 1.07e6 | 1.14e6
CG9328 | DRSC03203 | 1.02e6 | 1.01e6 | 8.14e5 | 6.81e5
DCTN2-p50 | DRSC07132 | 1.32e6 | 1.39e6 | 1.17e6 | 1.24e6
CG33225 | DRSC03881 | 5.69e5 | – | 9.70e5 | –
PH4alphaEFB | DRSC14473 | 5.95e5 | – | 8.46e5 | –
PH4alphaEFB | DRSC14950 | 1.50e6 | 1.48e6 | 9.69e5 | 1.09e6
Su(P) | DRSC11291 | 1.58e6 | 1.68e6 | 1.22e6 | 1.39e6
Cyp303a1 | DRSC03300 | 1.63e6 | 1.70e6 | 1.40e6 | 1.58e6
Hsp83 | DRSC08664 | 1.40e6 | 1.33e6 | 9.83e5 | 1.14e6
Yod1 | DRSC10433 | 1.76e6 | 1.74e6 | 1.38e6 | 1.36e6
CG14109 | DRSC10112 | 1.26e6 | 1.20e6 | 1.29e6 | 1.41e6
Nemp | DRSC20206 | 1.60e6 | 1.67e6 | 9.01e5 | 1.10e6
CG10950 | DRSC06020 | 1.47e6 | 1.56e6 | 1.14e6 | 1.18e6
Pi4KIIalpha | DRSC12322 | 1.44e6 | 1.56e6 | 1.20e6 | 1.25e6
Pi4KIIalpha | DRSC12323 | 1.50e6 | 1.81e6 | 1.22e6 | 1.32e6
Dgk | DRSC05064 | 1.50e6 | 1.49e6 | 7.59e5 | 8.66e5
Dgk | DRSC05065 | 1.50e6 | 1.54e6 | 9.65e5 | 1.11e6
Dgk | DRSC06171 | 1.49e6 | 1.74e6 | 1.15e6 | 1.37e6
Dgk | DRSC06782 | 1.33e6 | 1.32e6 | 1.10e6 | 1.17e6
CG14000 | DRSC02332 | 1.44e6 | 1.33e6 | 1.12e6 | 1.26e6
CAH6 | DRSC15505 | 1.58e6 | 1.58e6 | 1.17e6 | 1.24e6
CG8323 | DRSC07149 | 1.83e6 | 1.79e6 | 1.28e6 | 1.45e6
vis + achi | DRSC07277 | 1.27e6 | 1.41e6 | 1.12e6 | 1.19e6
Ir56c | DRSC06544 | 1.47e6 | 1.61e6 | 1.20e6 | 1.26e6

Looked up above.
CG9328 [DRSC03203], Kc cell number, rep 1: 1.02e6
Entry for Nemp [DRSC20206] under “Kc cell number, rep 1”: 1.60e6
Entry of Dgk [DRSC05064] in “Kc cell number, rep 2”: 1.49e6
